Reference: PubChem BioAssay AID602196 (INSERM, 2012)
Assay: 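Genes whose knock-down alters cisplatin killing of lung cancer cells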. System: human A549 lung cancer cells. Knock-down reagent: siRNA pair against human genes. Timing: 48 h transfection before cisplatin; time from cisplatin to read-out not stated. Challenge: cisplatin at a dose killing half of control-siRNA cells; exact dose and duration not given. Read-out: 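Cisplatin cell death as a shift from the 50% death seen with control siRNA; siRNAs toxic or growth-blocking alone scored 0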. Scale: two-siRNA summed score (-2 to +2): higher = both siRNAs protect from cisplatin killing; -2 means both sensitise; mean protection from cisplatin (shift in death) and protection from cisplatin (shift in death), siRNA C and protection from cisplatin (shift in death), siRNA D: higher = protection from cisplatin killing. Call rule: 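siRNAs harmful alone (LDH or WST-1) get 0; others get +1 for less and -1 for more cisplatin killing; genes are active when the two siRNAs give the same sign, summing to ±2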. Meaning of the calls: active = both siRNAs shift cisplatin killing the same way; inactive = no consistent shift, or siRNA harmful alone.
The deposit covers about 23,000 reagents; shown is a random part of them. 455 of all reagents (2%) count as active. 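Active includes both protection and sensitisation; some change values fall well beyond the stated -50 to +50 range.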 Entries without a mark were called inactive. Not stated in the record: the amount of reagent.

no.	Gene	PubChem SID	two-siRNA summed score (-2 to +2)	mean protection from cisplatin (shift in death) (%)	protection from cisplatin (shift in death), siRNA C (%)	protection from cisplatin (shift in death), siRNA D (%)
1	KIR2DL4	SID131506605	0	-1.2	-4.5	2
2	LOC442004	SID131510589	0	3.4	-4.8	11.6
3	LOC388351	SID131520325	1	9.5	22.6	-3.5
4	HES4 (hes family bHLH transcription factor 4)	SID131504088	0	-6.6	-13.4	0.3
5	ENTR1P1 (ENTR1 pseudogene 1)	SID131515053	0	8.6	12.7	4.5
6	USP45 (ubiquitin specific peptidase 45)	SID131517371	0	13.2	10.1	16.2
7	LOC196120	SID131520827	1	11.2	9.9	12.6
8	METTL17 (methyltransferase like 17)	SID131503652	0	-8.7	-2.4	-14.9
9	CLUHP3 (CLUH pseudogene 3)	SID131508820	0	1.5	-8.3	11.3
10	MCU (mitochondrial calcium uniporter)	SID131508136	0	0.7	4	-2.7
11	CLEC1B (C-type lectin domain family 1 member B)	SID131504526	0	-5.2	-17.6	7.3
12	ARMCX2 (armadillo repeat containing X-linked 2)	SID131510176	0	3	10.7	-4.8
13	CTIF (cap binding complex dependent translation initiation factor)	SID131516023	0	10.1	-7.4	27.6
14	RELA (RELA proto-oncogene, NF-kB subunit)	SID131509260	0	2	4.4	-0.4
15	AGAP3 (ArfGAP with GTPase domain, ankyrin repeat and PH domain 3)	SID131505166	0	-3.6	-5.4	-1.9
16	GLUD2 (glutamate dehydrogenase 2)	SID131515444	0	9.2	13	5.4
17	LOC441839	SID131515762	0	9.7	23.6	-4.3
18	BCAS2 (BCAS2 pre-mRNA processing factor)	SID131519802	1	7.5	8.9	6.2
19	CPA4 (carboxypeptidase A4)	SID131503850	0	-7.5	4.3	-19.2
20	TPM4 (tropomyosin 4)	SID131513908	0	7.2	6.1	8.2
21	LOC401610	SID131502453	-1	-2.1	-11.8	7.6
22	ICAM3 (intercellular adhesion molecule 3)	SID131522455	1	18.7	27.4	10
23	H3C3 (H3 clustered histone 3)	SID131517670	0	14.3	25.5	3.1
24	ANAPC11 (anaphase promoting complex subunit 11)	SID131504625	0	-4.9	1.7	-11.5
25	DGAT1 (diacylglycerol O-acyltransferase 1)	SID131520576	1	10.3	22.1	-1.4
26	ASIC3 (acid sensing ion channel subunit 3)	SID131518357	0	18.6	6.3	30.9
27	MMP1 (matrix metallopeptidase 1)	SID131509131	0	1.8	14.5	-10.8
28	LOC389243	SID131514649	0	8.1	16.4	-0.3
29	RSPH14 (radial spoke head 14 homolog)	SID131503092	0	-13.9	-12	-15.9
30	COP1 (COP1 E3 ubiquitin ligase)	SID131511670	0	4.6	-1	10.2
31	LOC388231	SID131521758	1	14.8	3.2	26.3
32	IL36RN (interleukin 36 receptor antagonist)	SID131503359	0	-10.6	-33.1	11.8
33	PNMA6A (PNMA family member 6A)	SID131510786	0	3.6	1.3	6
34	TNFRSF10D (TNF receptor superfamily member 10d)	SID131502299	-1	-3.6	10	-17.2
35	BTN3A2 (butyrophilin subfamily 3 member A2)	SID131500441	-1	-29.9	-27.8	-32
36	CYB5R4 (cytochrome b5 reductase 4)	SID131508225	0	0.8	-6.4	8
37	RDH16 (retinol dehydrogenase 16)	SID131501108	-1	-12.3	-14.2	-10.3
38	LOC440084	SID131512317	0	5.3	6.9	3.8
39	KRTAP19-4 (keratin associated protein 19-4)	SID131506841	0	-0.9	-7.4	5.5

2 of these entries, reformatted.
| Gene | PubChem SID | two-siRNA summed score (-2 to +2) | mean protection from cisplatin (shift in death) (%) | protection from cisplatin (shift in death), siRNA C (%) | protection from cisplatin (shift in death), siRNA D (%) |
| --- | --- | --- | --- | --- | --- |
| DGAT1 (diacylglycerol O-acyltransferase 1) | SID131520576 | 1 | 10.3 | 22.1 | -1.4 |
| ASIC3 (acid sensing ion channel subunit 3) | SID131518357 | 0 | 18.6 | 6.3 | 30.9 |
